Data as given in PubChem BioAssay AID540256 (National Center for Advancing Translational Sciences (NCATS), 2011).
The campaign covered roughly 300,000 compounds. About 3,700 (1.2%) were called active. Inconclusive results, whose numbers are uncertain, are shown with a selection of clear calls. Calls follow the shape of the full dose curve; tested in HEK293 cells. A potency beside an inconclusive call is a rough fit, not a confirmed value.

experiment: qHTS for Inhibitors of binding or entry into cells for Lassa Virus; conditions: Lassa virus pseudotype entry inhibition, cell reporter; series mostly up to 37.9 µM; also: nearly all actives have a fitted effect of over 50% in size
Potency is read from the fitted curve at half-maximal effect.

| Structure (SMILES) | Potency |
| --- | --- |
| Cc1ccccc1-n1c2nc(=O)[nH]c(=O)c-2cc2c(Cl)cccc21 | inactive |
| Cc1ccc(C)c2[nH]c(=O)c(CN(CCN3CCOCC3)Cc3nnnn3CC3CCCO3)cc12 (stereo unspecified) | inactive |
| COc1ccc(NC(=O)CN2CCN(c3ccccc3C)CC2)cc1 | inconclusive: 3.16 µM [inhibitor, single point] |
| Cc1ccc2sc(N3CCN(C(=O)c4ccc([N+](=O)[O-])o4)CC3)nc2c1C | inconclusive: 0.891 µM [activator, single point] |
| Cc1ccc(C(=O)/C=C/Nc2ccc([N+](=O)[O-])cc2Br)cc1 | inconclusive: 11.2 µM [inhibitor, partial curve, poor fit] |
| Cc1ccc(C(=O)NCc2ccccn2)cc1S(=O)(=O)N1CCCCC1 | inconclusive: 14.1 µM [inhibitor, single point] |
| O=C1CC2(CCN(C(=O)COc3ccc(Cl)cc3)CC2)Oc2ccccc21 | inconclusive: 17.8 µM [inhibitor, single point] |
| COc1ccccc1NC(=O)c1ccc(N2CC3CC(C2)c2cccc(=O)n2C3)c(NC(=O)c2cccnc2)c1 (stereo unspecified) | inconclusive: 5.01 µM [activator, single point] |
| COc1ccc(NC(=O)C(=O)c2cc(C)n(-c3ccc(C)cc3)c2C)cc1Cl | inactive |
| N=C1SCC(=O)N1c1nc(-c2ccccc2)cs1 | inconclusive: 5.17 µM [activator, full curve] |
| Cn1c(CN2CCOCC2)nc2cc(NC(=O)COc3ccc([N+](=O)[O-])cc3)ccc21 | inactive |
| CCC1CN(C(=O)C2CCN(S(=O)(=O)c3c(C)noc3/C=C/c3ccc(C)cc3)CC2)c2cc(C)ccc2O1 (stereo unspecified) | inactive |
| Cc1cccc(C(C#N)c2ccc(Cl)nn2)c1 (stereo unspecified) | inconclusive: 10 µM [inhibitor, partial curve, poor fit] |
| O=C(Cc1cccs1)Nc1ccc(S(=O)(=O)N2CCCC2)cc1 | inactive |
| CC1(C)CC(=O)C2=C(C1)NC(=O)NC2c1ccc([N+](=O)[O-])cc1 (stereo unspecified) | inactive |
| COc1ccc(C(=O)Nc2nnc(SCC(=O)NC3CC3)s2)cc1 | inconclusive: 8.91 µM [inhibitor, partial curve, poor fit] |
| COC(=O)c1cc(Br)c(=O)n(Cc2ccc3c(c2)OCO3)c1 | inactive |
| CC(=O)Nc1ccccc1/C=C/c1ccc2c(C)cc(C)c(O)c2n1 | inactive |
| CCOc1ccccc1N1CCN(C(=O)C(Sc2ccccc2)c2ccccc2)CC1 (stereo unspecified) | inconclusive: 12.6 µM [inhibitor, partial curve, poor fit] |
| CCCCOCC1CN(CCCC)S(=O)(=O)c2c(Oc3ccc(F)cc3)cccc2O1 (stereo unspecified) | inconclusive: 3.53 µM [inhibitor, full curve, poor fit] |
| O=C(CCc1ccc(O)c(O)c1)N/N=C/c1ccc2c(c1)OCO2 | inconclusive: 2.51 µM [inhibitor, partial curve, poor fit] |

Molecules listed so far containing an NH in an aromatic ring (2):

| Structure (SMILES) | Potency |
| --- | --- |
| Cc1ccccc1-n1c2nc(=O)[nH]c(=O)c-2cc2c(Cl)cccc21 | inactive |
| Cc1ccc(C)c2[nH]c(=O)c(CN(CCN3CCOCC3)Cc3nnnn3CC3CCCO3)cc12 (stereo unspecified) | inactive |

Part of the list above in order of formula weight, high to low:

| Structure (SMILES) | Potency |
| --- | --- |
| COc1ccc(NC(=O)C(=O)c2cc(C)n(-c3ccc(C)cc3)c2C)cc1Cl | inactive |
| O=C(Cc1cccs1)Nc1ccc(S(=O)(=O)N2CCCC2)cc1 | inactive |
| CC(=O)Nc1ccccc1/C=C/c1ccc2c(C)cc(C)c(O)c2n1 | inactive |

Carrying on.

| Structure (SMILES) | Potency |
| --- | --- |
| COc1ccc(-c2nn(-c3ccccc3)cc2/C=C\C(=O)Nc2ccc(C(=O)O)cc2)cc1 | inconclusive: 3.55 µM [inhibitor, single point] |
| COc1ccc(OCCCC(=O)Nc2ccc(N3CCCCC3)cc2)cc1 | inconclusive: 8.2 µM [inhibitor, partial curve, poor fit] |
| CC(C)(C)c1ccc(OCCC(=O)Nc2cccc(S(=O)(=O)N3CCCC3)c2)cc1 | inconclusive: 31.6 µM [inhibitor, single point] |
| O=c1ccc2ccc(O)c(O)c2o1 | inconclusive: 0.0651 µM [activator, full curve, poor fit] |
| CCn1c(SCC(=O)c2c[nH]c3ccccc23)nnc1-c1cccs1 | inconclusive: 7.08 µM [inhibitor, partial curve, poor fit] |
| Cc1ccc(-c2c(NCCc3ccccc3)c(=O)c2=O)cc1 | inconclusive: 3.55 µM [inhibitor, single point] |
| O=C1C=CC(=O)C(C2=C3C(=O)N(CCc4ccccc4)CC(=O)N3CCC2)=C1 | inconclusive: 25.1 µM [inhibitor, single point] |
| CCn1c(SCc2c(Cl)cccc2Cl)nnc1-c1nn(-c2ccccc2)ccc1=O | inactive |
| O=C1N/C(=N\N=C\c2ccccn2)SC1Cc1cccc(SC(F)F)c1 (stereo unspecified) | inconclusive: 10 µM [inhibitor, partial curve, poor fit] |
| COc1ccc(CCNC(=O)C(=O)NCCC2CCCCN2S(=O)(=O)c2ccccc2)cc1 (stereo unspecified) | inconclusive: 17.8 µM [inhibitor, single point] |
| CCN(c1ccccc1)S(=O)(=O)c1ccc(Cl)c(NC(=O)CN2CCCCCC2)c1 | inconclusive: 28.2 µM [inhibitor, partial curve, poor fit] |
| COc1cccc(C2=CC(=O)C(C(C)(C)C)N2C(C)(C)C)c1 (stereo unspecified) | inconclusive: 3.96 µM [activator, partial curve, poor fit] |
| CCOc1ccc(Nc2nc(Cc3nnc(SCC(=O)NC4CCCC4)n3C)cs2)cc1 | inconclusive: 23.1 µM [inhibitor, single point] |
| Oc1c(C(Nc2ccccn2)c2ccccn2)ccc2cccnc12 (stereo unspecified) | inconclusive: 10 µM [inhibitor, partial curve, poor fit] |
| CCn1cc(/C=N\NC(=O)c2ccc3c(c2)c(C)c(C)n3Cc2ccccc2)c(C)n1 | inconclusive: 8.91 µM [inhibitor, partial curve, poor fit] |
| CC(=O)c1ccc(NC(=O)c2nn(C)c3c2COc2ccccc2-3)cc1 | inconclusive: 11.2 µM [inhibitor, single point] |
| O=S(=O)(c1ccccc1)c1nc(-c2ccccc2)oc1NCCCN1CCOCC1 | inconclusive: 35.5 µM [inhibitor, single point] |
| CCn1c(SCC(=O)Nc2cc(Cl)ccc2OC)nc2c([nH]c3ccccc32)c1=O | inactive |
| Cc1ccccc1CNC(=O)C(=O)NCC1OCCCN1S(=O)(=O)c1ccc(F)cc1C (stereo unspecified) | inactive |
| CCOc1ccc(C(=O)Nc2cc(-c3nc4ccccc4[nH]3)ccc2Cl)cc1[N+](=O)[O-] | inconclusive: 12.6 µM [inhibitor, partial curve, poor fit] |
